For 42 sequences, binding signal results are on record in publication PMC7819943, “Rice protein-binding microarrays: a tool to detect cis-acting elements near promoter regions in rice”.

The list shows a part of the results.

The experiment addresses T1, OsSMF1 (Oryza sativa, UniProt Q6ZLB0 1-436).
T1 sequence: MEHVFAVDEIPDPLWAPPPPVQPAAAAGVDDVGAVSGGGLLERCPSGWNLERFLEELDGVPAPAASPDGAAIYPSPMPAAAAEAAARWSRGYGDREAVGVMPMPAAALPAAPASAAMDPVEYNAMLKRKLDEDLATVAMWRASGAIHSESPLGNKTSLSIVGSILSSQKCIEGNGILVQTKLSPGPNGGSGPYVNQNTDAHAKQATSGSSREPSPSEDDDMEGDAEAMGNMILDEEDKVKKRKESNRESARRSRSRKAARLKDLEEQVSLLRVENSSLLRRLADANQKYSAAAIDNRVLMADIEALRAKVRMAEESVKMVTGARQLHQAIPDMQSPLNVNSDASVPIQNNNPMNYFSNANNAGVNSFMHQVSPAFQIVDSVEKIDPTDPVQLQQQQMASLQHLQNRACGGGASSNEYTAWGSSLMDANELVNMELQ
The experiment can be described thus: protein-binding microarray (RPBM); PBS, 2% BSA, 51.3 ng/ul salmon testes DNA, 50 uM zinc acetate, 200 nM TF, 25 C, 1 h; high values mean tight binding. To be noted: protein: recombinant; tags: N-terminal polyhistidine and DsRed monomer fusion (pET32a); chain copies: 2; label: CyDye5-dUTP incorporated in the synthesized complementary strand; 3' TTTTT single-stranded linker to array surface; dsDNA, one strand shown. Summed up:
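Binding signal is defined as the fluorescence intensity of each feature in arbitrary units, read on an Axon 4000B scanner. Transcription factors with N-terminal polyhistidine and DsRed fusions came from E. coli BL21-CodonPlus and were purified on Ni–NTA. They were incubated at 200 nM for 1 h at 25 °C on a custom Agilent array that had been made double-stranded with Cy5-dUTP, with 50 µM zinc acetate present, and the array was washed.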
For “CATGGGCTTGAACTGGCTTTTGTGTATTTTGCAAGGCTTGCGGAGTCACCTAGTGCAG”, the binding signal was 3750 fluorescence intensity (a.u.).

Consider “TGACGACCGGTCGCCGTCGACGCGGCAGTCTTCGCCGGTGCGGAGTCACCTAGTGCAG”, for which the binding signal is 3250 fluorescence intensity (a.u.).

As to “TCGTTGCATTCCCACGCGTATTTAACACAACACTTTTAATCGGAGTCACCTAGTGCAG”, the binding signal was 3430 fluorescence intensity (a.u.).

“CGTATTAACCATTACACCTCATGTCCCAATTAATTTAACGCGGAGTCACCTAGTGCAG”: the binding signal was 4420 fluorescence intensity (a.u.).

In the case of “ACGATGATGAAGTTCCAAAGCATGGTGAATCTGTTATAGGCGGAGTCACCTAGTGCAG”, the binding signal is 3230 fluorescence intensity (a.u.).

On to “CTCGATCTCGCCGTCGACGACGTTGCTGCTGCTGGTGGTGCGGAGTCACCTAGTGCAG”, for which the binding signal was 3510 fluorescence intensity (a.u.).

Turning to “TTATACAACTTTCTATGGATCTTCATGATGCTAACTTCCACGGAGTCACCTAGTGCAG”, the binding signal was 4700 fluorescence intensity (a.u.).

On to “ACAGCATTACTACGCCATTGCTACGGTCATCATCAATCACCGGAGTCACCTAGTGCAG”, for which the binding signal was 5040 fluorescence intensity (a.u.).

On to “GAGAATTTTGTAATTTGAATTGAGTAAATTTCATCATTAGCGGAGTCACCTAGTGCAG”, for which the binding signal was 28100 fluorescence intensity (a.u.).

Turning to “CCCCATTGACATACACACAATATGTCATATATATTCATAACGGAGTCACCTAGTGCAG”, the binding signal was 5340 fluorescence intensity (a.u.).

With “ACGTGGTTCCCACGCTGACTCAGCTGCCACGTCGGACAAACGGAGTCACCTAGTGCAG”, the binding signal was 29000 fluorescence intensity (a.u.).

Regarding “TTCAAATATATGTCCATATATCCGATGTGACAACGAAACCCGGAGTCACCTAGTGCAG”, the binding signal was 3330 fluorescence intensity (a.u.).

For “GGTGACCGTCGTCGGCGACGTGGACAGCAGGGTGCTCGTCCGGAGTCACCTAGTGCAG”, the binding signal is 3720 fluorescence intensity (a.u.).

Turning to “CTCGAGACCTTCATGTTCTTCCTCATTCGCTGACACGTGGCGGAGTCACCTAGTGCAG”, the binding signal was 18200 fluorescence intensity (a.u.).

Consider “ACTTCTCGCTTCCGCTCCACGCCTCGCTGCCTGCCGCTCCCGGAGTCACCTAGTGCAG”, for which the binding signal was 3180 fluorescence intensity (a.u.).

“CTGAGGCGGCCTGGGCGTCTTGGGCACGAAGACGCGCGTGCGGAGTCACCTAGTGCAG”: the binding signal is 29100 fluorescence intensity (a.u.).

Turning to “TTATCCACATAAGCATAAATATGATGTGGCAATATATATACGGAGTCACCTAGTGCAG”, the binding signal was 6260 fluorescence intensity (a.u.).

For the sequence “AAATTATGTCATTTTGATCAACAGTTGGTACAGTAGTACACGGAGTCACCTAGTGCAG”, the binding signal is 48000 fluorescence intensity (a.u.).

Turning to “TTAAAGTGTGGCTTTACCTTTTGTTAGCCACATAATCACGCGGAGTCACCTAGTGCAG”, the binding signal is 4340 fluorescence intensity (a.u.).

Consider “GGTGGTGGACTAGGTAACTTTTGCTTAATCCCTTCATATGCGGAGTCACCTAGTGCAG”, for which the binding signal is 3530 fluorescence intensity (a.u.).

As for “AAAACCGGCGGCTGCCTCGCCAAAACCCAATGCAAGGACGCGGAGTCACCTAGTGCAG”, the binding signal is 21000 fluorescence intensity (a.u.).

Consider “ATGGAGGAAGGGGCTAGAAGAATGGTACTACTGGAAGGGACGGAGTCACCTAGTGCAG”, for which the binding signal is 3900 fluorescence intensity (a.u.).

For the sequence “ACGTAGACAAGACCACGATTAAACCAGACTTTAGACCAAGCGGAGTCACCTAGTGCAG”, the binding signal is 20000 fluorescence intensity (a.u.).

“CCACCCTTTTGTTTGTATATAGTCAGTGAGTATGTTCGATCGGAGTCACCTAGTGCAG”: the binding signal is 3360 fluorescence intensity (a.u.).

As to “GAAACAGATGGATAGGCTGTTGGATCTCGATCGAATGACACGGAGTCACCTAGTGCAG”, the binding signal is 4470 fluorescence intensity (a.u.).

In the case of “GCAGCCGCGGCCACGTCGGCACAAACCGAAGGCGGGAGGACGGAGTCACCTAGTGCAG”, the binding signal was 10400 fluorescence intensity (a.u.).

Consider “CGTTTGTAGGATATCCACGTGGCGCGTTGAGAGTGTTTATCGGAGTCACCTAGTGCAG”, for which the binding signal is 21900 fluorescence intensity (a.u.).

As to “GCTAAGATGCCACCTCACACCAGAATTAGATTTCCCCGGGCGGAGTCACCTAGTGCAG”, the binding signal was 6770 fluorescence intensity (a.u.).

In the case of “TCCGCGGCTCCGCGCTCTCCCCTCGCCGGTGTCACCGCTCCGGAGTCACCTAGTGCAG”, the binding signal was 3390 fluorescence intensity (a.u.).

With “GTTATTTTAATTTACTTTGGATCACCCTGATTATCGTTTCCGGAGTCACCTAGTGCAG”, the binding signal is 3280 fluorescence intensity (a.u.).

On to “TCACAGAACTATCTTAAAGTGGTTTGGTAGTTTGTTGCACCGGAGTCACCTAGTGCAG”, for which the binding signal was 3240 fluorescence intensity (a.u.).

“GCAATAGTTTTGTGTGGTGCAGGCTACGTGGACCCTTGCTCGGAGTCACCTAGTGCAG”: the binding signal is 7240 fluorescence intensity (a.u.).

As for “GAAAATGCGCAATACTGTTTGGTCAGTACGTGCTATTAATCGGAGTCACCTAGTGCAG”, the binding signal is 3200 fluorescence intensity (a.u.).

Take “TTCATCCCTTGAACTAGTTGTCAGCTACTGACCAGCCTGACGGAGTCACCTAGTGCAG”: the binding signal is 4280 fluorescence intensity (a.u.).

For “CTCCAATGCTACATGCCAAGTCATCCGGACTAAACGCGTCCGGAGTCACCTAGTGCAG”, the binding signal is 4980 fluorescence intensity (a.u.).

Turning to “TGTGAGAGCTCACGCTAATCGGAGGGAATACGATAATGGTCGGAGTCACCTAGTGCAG”, the binding signal is 28700 fluorescence intensity (a.u.).

For the sequence “GGCCGGTGCGCCTGTCGATCCACGTGACGCCACCACTGGGCGGAGTCACCTAGTGCAG”, the binding signal is 7620 fluorescence intensity (a.u.).

For “ATCCATGCTCTTACCGTCATATTTTCCATAATTTCACTGTCGGAGTCACCTAGTGCAG”, the binding signal was 3310 fluorescence intensity (a.u.).

For “CCATGTAGATCTAACTTTCTATTCACTCGTGGGTTCCGGGCGGAGTCACCTAGTGCAG”, the binding signal is 3300 fluorescence intensity (a.u.).

Take “TGTGAGCAGTGACGCGCACGCGCTGATGCCCTGCGTCTACCGGAGTCACCTAGTGCAG”: the binding signal was 5510 fluorescence intensity (a.u.).

For “GCCCGCTCCGCCGCGCGACACCGCGACGCCACCACCCCATCGGAGTCACCTAGTGCAG”, the binding signal is 4040 fluorescence intensity (a.u.).

For “ATAGATCCTCTTGCTGCTCCCTCTCTCCTGGATAAGAACCCGGAGTCACCTAGTGCAG”, the binding signal is 3810 fluorescence intensity (a.u.).
